PubChem BioAssay AID743454 | Peter MacCallum Cancer Centre | 2014

Test: 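Search for knock-downs that restore vorinostat killing in resistant colon cancer cells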 (primary screen)
System: human HCT116-VR colon cancer cells, selected for vorinostat resistance
Knock-down reagent: siRNA pool against human genes, 40 nM siRNA pool
Timing: vorinostat for 24 h, read-out about 72 h after transfection
Conditions: vorinostat at 2.5 µM final
Read-out: 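Cell viability by CellTiter-Fluor and caspase 3/7 activity by luminescence, each scaled to mock wells per plate, duplicates averaged, then robust z-scored over all plates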
Direction: viability robust z-score: higher = more viable cells than screen typical; caspase robust z-score: higher = more caspase 3/7 activity than screen typical
Active means: 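a knock-down is a hit when classed RV1 or RV2 for lowered viability, or CA1 or CA2 for caspase activation; those lethal without drug were dropped; hits were retested singly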
This is a random part of about 18,000 reagents tested. Of all reagents, 450 (2.5%) got an active call. 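Single biological run; no consistent viability z cut-off exists, so the class columns, not z-scores, define the calls.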

no.	target gene	viability hit class	caspase hit class	viability robust z-score	caspase robust z-score	call
1	SEMA3B (semaphorin 3B)	no change	no change	0.34	-0.55	inactive
2	TP53INP2 (tumor protein p53 inducible nuclear protein 2)	no change	no change	0.08	3.44	inactive
3	WBP4 (WW domain binding protein 4)	no change	no change	-1.38	1.16	inactive
4	POFUT4 (protein O-fucosyltransferase 4)	no change	no change	-0.47	-0.97	inactive
5	MTHFS (methenyltetrahydrofolate synthetase)	no change	no change	0.66	-0.83	inactive
6	FXYD4 (FXYD domain containing ion transport regulator 4)	no change	no change	-0.31	-0.9	inactive
7	XAGE3 (X antigen family member 3)	no change	no change	-1.12	0.46	inactive
8	ADAMTS15 (ADAM metallopeptidase with thrombospondin type 1 motif 15)	no change	no change	1.19	0.02	inactive
9	H2BC3 (H2B clustered histone 3)	no change	no change	-0.27	1.53	inactive
10	NCKIPSD (NCK interacting protein with SH3 domain)	no change	no change	0.15	-0.77	inactive
11	KCNE4	no change	no change	-0.08	-0.86	inactive
12	HMGN2P46	no change	no change	-0.73	0.6	inactive
13	OR10AG1 (olfactory receptor family 10 subfamily AG member 1)	no change	no change	1.07	1.79	inactive
14	KCTD21 (potassium channel tetramerization domain containing 21)	no change	no change	0.1	2.62	inactive
15	DIPK1B (divergent protein kinase domain 1B)	no change	no change	-0.52	1.17	inactive
16	NEURL3 (neuralized E3 ubiquitin protein ligase 3)	no change	no change	-0.91	4.69	inactive
17	AGRN (agrin)	no change	no change	-0.26	2.06	inactive
18	MROH8 (maestro heat like repeat family member 8)	no change	no change	0.69	-0.48	inactive
19	TIMP1 (TIMP metallopeptidase inhibitor 1)	no change	no change	-0.01	1.11	inactive
20	GLTP (glycolipid transfer protein)	no change	no change	-0.39	3.41	inactive
21	UFSP1 (UFM1 specific peptidase 1)	no change	CA1 (caspase activation)	-0.96	6.41	active
22	TICRR (TOPBP1 interacting checkpoint and replication regulator)	no change	no change	-0.56	0.38	inactive
23	GALNT12 (polypeptide N-acetylgalactosaminyltransferase 12)	no change	CA2 (caspase activation)	-0.83	6.34	active

Sorted by “viability robust z-score” (highest first): some entries from above
target gene	viability hit class	caspase hit class	viability robust z-score	caspase robust z-score	call
ADAMTS15 (ADAM metallopeptidase with thrombospondin type 1 motif 15)	no change	no change	1.19	0.02	inactive
XAGE3 (X antigen family member 3)	no change	no change	-1.12	0.46	inactive
